# Results reported in article PMC5286501.
# Target: ERAMOSA (ERA), yeast hybrid fusion (Antirrhinum majus)
# Assay: two-hybrid; yeast two-hybrid, GAL4 system (pGADT7, pGBKT7), ERA as bait, strain AH109, 28 °C, medium lacking leucine, tryptophan, adenine and histidine with 1, 2 and 5 mM 3-AT
sequence,measurement,value
"SQUAMOSA (SQUA), yeast two-hybrid fusion (from UniProt Q38742 1-248)",binding,binds

# These are yes or no findings as the source states them, for the method shown. Binding can be weak; no strength is given.
